Residue numbers refer to the chain shown, from its start. These are yes or no findings as the source states them, for the method shown. In cells and extracts the contact can be indirect. Some binding calls cover weakened binding; strength is not graded here. Sequences can lack the tags named with a protein.
How the values were obtained:
[1] = target: T1, TMEM25-NQ (N106Q/N119Q/N162Q/N175Q/N192Q/N205Q), FLAG- or HA-tagged, in HEK293 cells (human) (UniProt Q86YD3); test: co-IP; cis: HEK293T cells co-transfected with two tagged proteins, cultured at low density; lysis in 150 mM NaCl, 4 mM EDTA, 10% glycerol, 0.5% Triton X-100, 50 mM Tris-HCl pH 7.5, 1 mM DTT; anti-FLAG (M2) or anti-HA (3F10) on protein G-Sepharose; immunoblot
T1 sequence: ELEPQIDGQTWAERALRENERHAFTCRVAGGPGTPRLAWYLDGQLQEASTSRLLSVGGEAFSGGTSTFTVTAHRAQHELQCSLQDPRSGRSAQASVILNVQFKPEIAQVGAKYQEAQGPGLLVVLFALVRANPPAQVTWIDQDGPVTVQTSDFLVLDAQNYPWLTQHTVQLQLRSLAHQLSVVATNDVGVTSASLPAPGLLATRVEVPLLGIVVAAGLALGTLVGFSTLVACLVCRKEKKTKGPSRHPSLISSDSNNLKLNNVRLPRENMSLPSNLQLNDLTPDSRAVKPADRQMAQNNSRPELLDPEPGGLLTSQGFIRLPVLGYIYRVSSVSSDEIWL

Chains of the proteins cited; added tags and fusions are not shown.
UniProt O95832: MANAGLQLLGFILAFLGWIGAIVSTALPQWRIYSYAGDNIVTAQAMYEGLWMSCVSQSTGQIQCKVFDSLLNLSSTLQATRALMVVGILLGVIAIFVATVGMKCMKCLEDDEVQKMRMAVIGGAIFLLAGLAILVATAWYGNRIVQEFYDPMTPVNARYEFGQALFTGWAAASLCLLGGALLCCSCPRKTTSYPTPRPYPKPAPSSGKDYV
UniProt O14493: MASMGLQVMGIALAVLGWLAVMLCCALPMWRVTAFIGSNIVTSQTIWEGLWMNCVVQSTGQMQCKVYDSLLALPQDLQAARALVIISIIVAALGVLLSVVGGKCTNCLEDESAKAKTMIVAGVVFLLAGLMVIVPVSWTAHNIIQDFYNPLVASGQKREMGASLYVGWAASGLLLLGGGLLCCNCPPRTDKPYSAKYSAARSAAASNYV

[2] = target: T2, TMEM25-ΔICR (residues 27–268), FLAG-tagged, in HEK293 cells (human) (UniProt Q86YD3); test: as above
T2 sequence: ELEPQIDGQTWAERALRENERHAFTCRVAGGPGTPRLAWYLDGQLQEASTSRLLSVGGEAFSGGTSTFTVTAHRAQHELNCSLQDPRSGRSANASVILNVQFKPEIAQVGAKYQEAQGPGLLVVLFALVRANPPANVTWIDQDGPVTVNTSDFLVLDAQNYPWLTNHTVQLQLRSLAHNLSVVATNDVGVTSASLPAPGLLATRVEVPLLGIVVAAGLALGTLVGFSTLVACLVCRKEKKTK

[3] = target: T3, TMEM25-FL (residues 27–366), N-terminally FLAG- or HA-tagged, in HEK293 cells (human) (UniProt Q86YD3); test: as above
T3 sequence (chain, N-glycosylated (complex-type and high-mannose-type N-glycans)): T1 sequence with Q80N, Q93N, Q136N, Q149N, Q166N, Q179N

[4] = target: T3, TMEM25-FL (residues 27–366), N-terminally FLAG- or HA-tagged, in HEK293 cells (human); test: co-IP; trans: HEK293T cells expressing one tagged protein co-cultured to confluency with HEK293T cells expressing the other; lysate precipitated with anti-FLAG antibody; immunoblot
[5] = target: T4, TMEM25–HA (C-terminally HA-tagged TMEM25-FL, residues 27–366) (human) (UniProt Q86YD3); test: proximity ligation; Duolink PLA on fixed, permeabilised HEK293 cells expressing FLAG- and HA-tagged proteins; anti-FLAG rabbit polyclonal and anti-HA mouse monoclonal primary antibodies; signal at the plasma membrane of single cells (cis)
T4 sequence: T1 sequence with Q80N, Q93N, Q136N, Q149N, Q166N, Q179N

[6] = target: T3, TMEM25-FL (residues 27–366), N-terminally FLAG- or HA-tagged, in HEK293 cells (human); test: co-IP; cis, with or without a co-expressed third protein: HEK293T cells triply transfected (HA–TMEM25, HA–JAM-A or Myc–Par3 as third protein), low density; anti-FLAG or anti-HA precipitation; immunoblot, band ratios
[7] = target: T5, TMEM25-ΔC (residues 27–362), HA-tagged, in HEK293 cells (human) (UniProt Q86YD3); test: as above
T5 sequence: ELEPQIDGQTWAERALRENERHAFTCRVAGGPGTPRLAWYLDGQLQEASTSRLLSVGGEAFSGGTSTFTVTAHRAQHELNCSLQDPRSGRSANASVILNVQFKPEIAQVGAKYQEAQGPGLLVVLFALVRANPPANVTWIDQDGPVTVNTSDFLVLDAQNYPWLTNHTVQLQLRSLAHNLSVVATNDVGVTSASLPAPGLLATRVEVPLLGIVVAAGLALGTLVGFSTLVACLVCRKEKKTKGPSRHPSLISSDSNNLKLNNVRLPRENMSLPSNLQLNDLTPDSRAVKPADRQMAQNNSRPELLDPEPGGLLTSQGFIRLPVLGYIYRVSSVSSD

Substance | binding [1] | binding [2] | binding [3] | binding [4] | binding [5] | binding [6] | binding [7]
claudin-1 (residues 1–211), FLAG- or Myc-tagged, in HEK293 cells (from UniProt O95832 1-211) | binds | binds | binds | binds | binds | binds | binds
claudin-4 (residues 1–209), FLAG-tagged, in HEK293 cells (from UniProt O14493 1-209) |  |  | no binding |  |  |  | 

— article PMC10897455
